Measurements as given in the supplement of paper PMC10849652.
Some of the results follow.

Amino acid sequences for entries named in this document (tags omitted). A change or cut given only in a name is not applied to a line headed by its entry.
UniProt Q9Y376: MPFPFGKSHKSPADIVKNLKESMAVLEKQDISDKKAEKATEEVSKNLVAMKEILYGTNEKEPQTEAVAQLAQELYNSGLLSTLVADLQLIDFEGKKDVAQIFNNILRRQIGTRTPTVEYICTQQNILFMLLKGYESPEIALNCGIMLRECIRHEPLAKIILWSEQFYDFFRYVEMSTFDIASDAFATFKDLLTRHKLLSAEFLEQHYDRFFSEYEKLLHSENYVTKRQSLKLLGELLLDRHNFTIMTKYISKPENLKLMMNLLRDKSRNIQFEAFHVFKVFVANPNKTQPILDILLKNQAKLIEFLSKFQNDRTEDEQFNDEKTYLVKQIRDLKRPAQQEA
UniProt Q6P1X6: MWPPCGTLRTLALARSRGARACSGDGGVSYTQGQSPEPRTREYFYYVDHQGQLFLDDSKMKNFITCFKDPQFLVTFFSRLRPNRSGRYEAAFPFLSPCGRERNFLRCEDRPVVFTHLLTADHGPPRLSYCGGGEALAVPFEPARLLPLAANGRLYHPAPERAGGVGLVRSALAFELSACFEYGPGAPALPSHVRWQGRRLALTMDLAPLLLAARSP
UniProt P47756, whole entry, looked up: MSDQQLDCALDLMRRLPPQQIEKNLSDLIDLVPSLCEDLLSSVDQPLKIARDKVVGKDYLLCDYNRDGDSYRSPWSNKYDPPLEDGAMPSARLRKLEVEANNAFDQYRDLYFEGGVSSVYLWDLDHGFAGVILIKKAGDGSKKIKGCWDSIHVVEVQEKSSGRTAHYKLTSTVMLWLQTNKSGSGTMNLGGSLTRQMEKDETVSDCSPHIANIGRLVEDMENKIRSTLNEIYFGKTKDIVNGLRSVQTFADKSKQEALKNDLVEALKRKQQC
UniProt O43852: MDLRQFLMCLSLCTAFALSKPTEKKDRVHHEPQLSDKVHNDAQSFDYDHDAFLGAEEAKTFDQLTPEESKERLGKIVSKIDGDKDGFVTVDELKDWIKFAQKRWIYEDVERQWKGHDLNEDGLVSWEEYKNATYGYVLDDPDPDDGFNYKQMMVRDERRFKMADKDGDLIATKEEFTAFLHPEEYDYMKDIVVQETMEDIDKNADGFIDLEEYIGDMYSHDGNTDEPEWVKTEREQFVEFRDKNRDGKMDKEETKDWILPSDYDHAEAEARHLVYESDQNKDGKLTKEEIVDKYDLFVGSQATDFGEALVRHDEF
UniProt P40121: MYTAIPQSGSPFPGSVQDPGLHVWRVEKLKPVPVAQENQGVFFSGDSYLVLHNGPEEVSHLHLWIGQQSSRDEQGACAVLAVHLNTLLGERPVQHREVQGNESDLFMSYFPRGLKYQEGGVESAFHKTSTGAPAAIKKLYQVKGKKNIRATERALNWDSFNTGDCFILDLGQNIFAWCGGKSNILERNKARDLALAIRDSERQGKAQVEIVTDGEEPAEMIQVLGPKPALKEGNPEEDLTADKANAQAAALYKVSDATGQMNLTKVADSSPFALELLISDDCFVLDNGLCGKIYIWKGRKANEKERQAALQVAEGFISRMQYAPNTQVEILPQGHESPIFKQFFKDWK
UniProt Q9BX69: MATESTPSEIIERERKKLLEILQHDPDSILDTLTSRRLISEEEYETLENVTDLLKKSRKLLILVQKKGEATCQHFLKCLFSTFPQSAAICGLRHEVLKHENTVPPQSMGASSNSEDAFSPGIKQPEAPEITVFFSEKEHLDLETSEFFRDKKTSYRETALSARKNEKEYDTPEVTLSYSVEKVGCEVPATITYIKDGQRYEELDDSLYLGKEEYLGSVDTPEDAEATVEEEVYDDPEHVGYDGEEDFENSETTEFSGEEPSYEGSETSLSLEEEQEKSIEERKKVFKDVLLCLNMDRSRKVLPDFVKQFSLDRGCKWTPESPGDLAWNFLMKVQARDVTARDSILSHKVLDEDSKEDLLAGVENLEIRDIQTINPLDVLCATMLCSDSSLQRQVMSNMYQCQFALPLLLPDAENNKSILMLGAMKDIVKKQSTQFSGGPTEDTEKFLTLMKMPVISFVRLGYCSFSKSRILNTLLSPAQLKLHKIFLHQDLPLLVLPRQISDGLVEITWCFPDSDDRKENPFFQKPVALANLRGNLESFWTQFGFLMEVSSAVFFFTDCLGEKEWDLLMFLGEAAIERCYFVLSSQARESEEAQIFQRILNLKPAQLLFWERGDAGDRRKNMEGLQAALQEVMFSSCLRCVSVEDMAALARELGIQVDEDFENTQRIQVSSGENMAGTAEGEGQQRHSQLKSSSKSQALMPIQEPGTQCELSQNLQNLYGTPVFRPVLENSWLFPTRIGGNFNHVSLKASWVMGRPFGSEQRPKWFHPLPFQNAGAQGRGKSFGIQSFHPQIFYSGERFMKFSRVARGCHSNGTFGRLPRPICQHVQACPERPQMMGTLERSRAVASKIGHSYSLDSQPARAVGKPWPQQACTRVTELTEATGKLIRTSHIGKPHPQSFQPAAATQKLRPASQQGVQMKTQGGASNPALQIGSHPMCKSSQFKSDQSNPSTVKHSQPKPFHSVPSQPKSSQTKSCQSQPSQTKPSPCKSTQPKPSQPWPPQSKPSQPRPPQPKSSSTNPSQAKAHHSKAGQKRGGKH
UniProt O75155: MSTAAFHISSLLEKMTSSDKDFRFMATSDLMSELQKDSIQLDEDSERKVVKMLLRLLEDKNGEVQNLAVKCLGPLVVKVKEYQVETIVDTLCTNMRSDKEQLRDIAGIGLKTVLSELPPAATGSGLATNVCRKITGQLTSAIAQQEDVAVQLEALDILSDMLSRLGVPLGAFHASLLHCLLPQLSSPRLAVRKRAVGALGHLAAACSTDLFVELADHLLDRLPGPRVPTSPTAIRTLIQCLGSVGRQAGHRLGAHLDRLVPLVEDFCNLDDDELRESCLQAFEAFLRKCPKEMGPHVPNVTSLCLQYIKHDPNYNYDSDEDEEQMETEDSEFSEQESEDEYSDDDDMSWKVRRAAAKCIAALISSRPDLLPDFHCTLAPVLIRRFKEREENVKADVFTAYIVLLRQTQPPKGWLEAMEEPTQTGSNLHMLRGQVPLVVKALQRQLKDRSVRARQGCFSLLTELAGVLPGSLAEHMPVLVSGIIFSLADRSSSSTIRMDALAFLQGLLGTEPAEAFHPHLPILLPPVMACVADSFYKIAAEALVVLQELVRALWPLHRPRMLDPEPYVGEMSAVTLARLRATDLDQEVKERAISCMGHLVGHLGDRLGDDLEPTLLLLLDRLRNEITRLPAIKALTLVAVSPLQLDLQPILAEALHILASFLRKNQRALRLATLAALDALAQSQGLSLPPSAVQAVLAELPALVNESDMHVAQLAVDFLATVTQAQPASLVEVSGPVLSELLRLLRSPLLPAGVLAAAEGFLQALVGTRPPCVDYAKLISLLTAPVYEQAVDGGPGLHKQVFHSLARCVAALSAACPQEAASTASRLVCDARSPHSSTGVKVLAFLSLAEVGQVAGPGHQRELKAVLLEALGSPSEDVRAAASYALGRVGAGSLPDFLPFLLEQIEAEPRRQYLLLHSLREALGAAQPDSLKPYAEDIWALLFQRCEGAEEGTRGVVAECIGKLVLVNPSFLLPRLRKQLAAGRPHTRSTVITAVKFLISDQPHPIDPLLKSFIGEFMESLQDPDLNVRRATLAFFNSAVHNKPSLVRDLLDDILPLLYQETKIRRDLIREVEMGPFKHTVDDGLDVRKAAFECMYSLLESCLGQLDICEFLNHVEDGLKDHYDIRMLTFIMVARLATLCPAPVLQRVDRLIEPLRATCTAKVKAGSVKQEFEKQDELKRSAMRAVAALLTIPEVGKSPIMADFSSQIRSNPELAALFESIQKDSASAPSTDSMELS
UniProt Q9UFG5: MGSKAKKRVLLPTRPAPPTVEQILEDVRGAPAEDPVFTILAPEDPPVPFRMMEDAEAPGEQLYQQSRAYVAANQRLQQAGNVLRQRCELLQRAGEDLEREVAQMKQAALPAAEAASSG
UniProt Q96EU7: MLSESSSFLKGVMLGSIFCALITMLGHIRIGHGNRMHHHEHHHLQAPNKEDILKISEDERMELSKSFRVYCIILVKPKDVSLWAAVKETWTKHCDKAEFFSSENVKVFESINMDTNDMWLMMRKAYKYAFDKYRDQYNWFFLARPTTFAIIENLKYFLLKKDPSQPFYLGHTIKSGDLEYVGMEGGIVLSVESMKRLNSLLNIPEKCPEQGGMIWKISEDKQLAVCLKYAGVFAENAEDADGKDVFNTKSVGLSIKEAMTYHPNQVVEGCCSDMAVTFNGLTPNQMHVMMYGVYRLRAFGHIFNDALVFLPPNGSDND
UniProt O95873: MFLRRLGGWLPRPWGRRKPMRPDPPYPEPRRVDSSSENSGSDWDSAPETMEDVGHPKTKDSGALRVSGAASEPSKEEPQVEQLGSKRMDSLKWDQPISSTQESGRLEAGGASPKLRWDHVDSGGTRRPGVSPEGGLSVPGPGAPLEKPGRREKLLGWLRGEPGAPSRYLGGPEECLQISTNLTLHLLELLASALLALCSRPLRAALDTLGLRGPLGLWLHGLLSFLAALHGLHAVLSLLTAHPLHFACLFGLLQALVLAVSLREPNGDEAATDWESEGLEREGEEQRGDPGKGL
UniProt Q8WUR7: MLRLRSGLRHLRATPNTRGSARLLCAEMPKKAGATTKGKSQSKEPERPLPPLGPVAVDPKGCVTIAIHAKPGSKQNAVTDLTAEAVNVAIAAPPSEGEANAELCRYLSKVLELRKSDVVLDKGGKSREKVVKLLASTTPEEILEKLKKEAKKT
UniProt Q96L46: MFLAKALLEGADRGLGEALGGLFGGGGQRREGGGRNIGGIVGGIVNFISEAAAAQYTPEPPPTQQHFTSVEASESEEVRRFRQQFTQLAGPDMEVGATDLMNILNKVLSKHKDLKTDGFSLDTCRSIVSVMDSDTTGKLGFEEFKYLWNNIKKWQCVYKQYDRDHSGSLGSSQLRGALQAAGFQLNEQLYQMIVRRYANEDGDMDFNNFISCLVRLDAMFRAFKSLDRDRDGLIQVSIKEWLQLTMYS
UniProt Q9NZ63: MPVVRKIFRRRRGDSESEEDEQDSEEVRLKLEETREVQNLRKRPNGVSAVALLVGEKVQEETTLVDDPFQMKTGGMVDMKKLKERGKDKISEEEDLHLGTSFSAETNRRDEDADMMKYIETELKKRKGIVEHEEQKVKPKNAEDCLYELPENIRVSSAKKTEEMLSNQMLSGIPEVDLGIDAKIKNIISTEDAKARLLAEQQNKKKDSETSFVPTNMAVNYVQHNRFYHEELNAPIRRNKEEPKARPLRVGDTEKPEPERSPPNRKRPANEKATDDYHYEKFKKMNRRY
UniProt Q96B23: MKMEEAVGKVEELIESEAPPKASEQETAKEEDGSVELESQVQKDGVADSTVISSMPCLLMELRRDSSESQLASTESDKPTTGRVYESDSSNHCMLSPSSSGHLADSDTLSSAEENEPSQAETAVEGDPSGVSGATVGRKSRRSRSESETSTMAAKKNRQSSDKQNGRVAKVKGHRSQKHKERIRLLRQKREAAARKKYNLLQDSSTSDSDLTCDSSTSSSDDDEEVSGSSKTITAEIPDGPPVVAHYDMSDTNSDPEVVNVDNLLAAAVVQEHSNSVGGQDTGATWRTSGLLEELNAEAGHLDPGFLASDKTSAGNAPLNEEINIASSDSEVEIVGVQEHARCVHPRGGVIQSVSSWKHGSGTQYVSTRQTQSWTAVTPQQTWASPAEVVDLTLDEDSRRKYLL
UniProt Q86YS7: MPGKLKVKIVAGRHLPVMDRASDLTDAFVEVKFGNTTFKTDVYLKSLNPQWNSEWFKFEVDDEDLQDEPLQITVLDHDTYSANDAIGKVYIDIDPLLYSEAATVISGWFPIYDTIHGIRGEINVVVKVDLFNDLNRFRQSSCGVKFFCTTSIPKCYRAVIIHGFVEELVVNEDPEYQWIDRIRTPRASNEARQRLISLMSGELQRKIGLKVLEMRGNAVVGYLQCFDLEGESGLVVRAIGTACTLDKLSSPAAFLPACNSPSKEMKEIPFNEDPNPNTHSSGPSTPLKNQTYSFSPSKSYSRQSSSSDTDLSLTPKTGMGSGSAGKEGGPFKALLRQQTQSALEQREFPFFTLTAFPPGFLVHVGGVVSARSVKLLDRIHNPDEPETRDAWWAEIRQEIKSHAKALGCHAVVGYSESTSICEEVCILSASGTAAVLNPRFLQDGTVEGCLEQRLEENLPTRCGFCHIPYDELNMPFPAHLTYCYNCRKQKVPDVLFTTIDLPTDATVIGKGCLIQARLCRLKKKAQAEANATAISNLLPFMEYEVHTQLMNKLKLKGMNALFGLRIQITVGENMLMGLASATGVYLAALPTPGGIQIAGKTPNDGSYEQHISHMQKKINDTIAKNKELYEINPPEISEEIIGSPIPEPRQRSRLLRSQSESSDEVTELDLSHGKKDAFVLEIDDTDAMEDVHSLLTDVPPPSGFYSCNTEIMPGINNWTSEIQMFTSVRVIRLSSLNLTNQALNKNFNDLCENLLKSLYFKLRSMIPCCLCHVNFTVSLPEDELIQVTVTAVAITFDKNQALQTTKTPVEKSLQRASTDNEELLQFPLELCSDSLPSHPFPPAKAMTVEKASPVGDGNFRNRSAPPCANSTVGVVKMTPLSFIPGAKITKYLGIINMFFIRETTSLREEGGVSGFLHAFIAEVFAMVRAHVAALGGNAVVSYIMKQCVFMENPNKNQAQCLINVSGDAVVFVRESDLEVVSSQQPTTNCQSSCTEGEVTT

How the values were obtained:
Assay in all cases: log2 fold change, soluble protein after heating vs DMSO (PISA); higher = thermal stabilisation; K562 cells, 10 uM, 30 min; active = over 0.2 and 3.5 SD of the protein, either way, in both replicates (recomputed)
[1] = compound: CC[C@@H]1C(=O)N(C)c2cnc(Nc3ccc(C(=O)NC4CCN(C)CC4)cc3OC)nc2N1C1CCCC1
Method in brief: (§1)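 Aliquots of K562 cells (2×10^6 cells/mL) treated with 10 μM compound for 30 min were heated for 3 min over 48°C-58°C. After pooling and extraction in PBS with 0.5% NP-40 at 4°C, soluble protein from a 21,000xg, 90 min spin was quantified by TMTpro 16plex LC-MS/MS with channel sums equalised. Thermal stability is expressed against control samples, from duplicates, as a log2 fold change.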

volasertib = compound: CC[C@@H]1C(=O)N(C)c2cnc(Nc3ccc(C(=O)N[C@H]4CC[C@H](N5CCN(CC6CC6)CC5)CC4)cc3OC)nc2N1C(C)C [volasertib]
Method in brief: as §1

[2] = compound: CC[C@H](C)N1C=C(C2=C(C=C(C=C21)C3=CN=C(C=C3)N4CCNCC4)C(=O)NCC5=C(C=C(NC5=O)C)C)C
Method in brief: as §1

epoxomicin = compound: CC[C@H](C)[C@@H](C(=O)N[C@@H]([C@@H](C)O)C(=O)N[C@@H](CC(C)C)C(=O)[C@]1(CO1)C)NC(=O)[C@H]([C@@H](C)CC)N(C)C(=O)C [epoxomicin]
Method in brief: as §1

[3] = compound: CCn1c(C(=O)N(C2CC2)C2CC2)cc2c3c(ncn3C)c(Nc3cc(C)n(C)n3)nc21
Method in brief: as §1

[4] = compound: CCn1cc(-c2ccnc3[nH]c(-c4cccc(CN(C)C)c4)cc23)c(-c2ccc(NC(=O)N(C)C)cc2)n1
Method in brief: as §1

[5] = compound: CN(C)CC(=O)Nc1ccc2[nH]c(=O)c3ccccc3c2c1
Method in brief: as §1

rosiglitazone = compound: CN(CCOC1=CC=C(C=C1)C[C@H]2C(=O)NC(=O)S2)C3=CC=CC=N3 (racemic) [rosiglitazone]
Method in brief: as §1

[6] = compound: CN1C2=C(C3=C1C(=O)N(N=C3)CC4=CC(=CC=C4)N)SC(=C2)S(=O)C
Method in brief: as §1

[7] = compound: CN1CCC(CNc2ccc3ncc(-c4cccc(OC(F)(F)F)c4)n3n2)CC1
Method in brief: as §1

Measured: log2 fold change

C3 (UniProt P01024)
inactive: [1] -0.068 | volasertib 0.105 | [2] -0.084 | epoxomicin -0.393 | [3] 0.097 | [4] -0.09 | [5] -0.153 | rosiglitazone 0.072 | [6] 0.293 | [7] 0.081

CAB39 (UniProt Q9Y376)
inactive: [1] 0.004 | volasertib -0.015 | [2] -0.023 | epoxomicin 0.005 | [3] 0.021 | [4] -0.034 | [5] -0.008 | rosiglitazone -0.016 | [6] -0.066 | [7] -0.036

BTF3 (UniProt P20290)
inactive: [1] -0.034 | volasertib 0.078 | [2] -0.047 | epoxomicin 0.013 | [3] 0.026 | [4] -0.001 | [5] -0.035 | rosiglitazone 0.009 | [6] -0.041 | [7] 0.018

C8orf82 (UniProt Q6P1X6)
inactive: [1] -0.014 | volasertib 0.029 | [2] -0.015 | epoxomicin 0.102 | [3] -0.011 | [4] 0.006 | [5] -0.013 | rosiglitazone -0.014 | [6] -0.083 | [7] 0.018

CARD8 isoform 5 (UniProt Q9Y2G2)
inactive: [1] 0.122 | volasertib -0.173 | [2] 0.119 | epoxomicin -0.002 | [3] 0.033 | [4] -0.018 | [5] 0.043 | rosiglitazone 0.127 | [6] 0.014 | [7] 0.03

CAPZB isoform 2 (UniProt P47756)
inactive: [1] -0.055 | volasertib -0.034 | [2] -0.032 | epoxomicin 0.019 | [3] 0.025 | [4] 0.033 | [5] -0.069 | rosiglitazone -0.015 | [6] -0.057 | [7] -0.05

CALU isoform 3 (UniProt O43852)
inactive: [1] 0.001 | volasertib 0.05 | [2] -0.058 | epoxomicin -0.031 | [3] 0.027 | [4] -0.023 | [5] -0.051 | rosiglitazone -0.019 | [6] -0.006 | [7] 0.034

CALR (UniProt P27797)
inactive: [1] -0.021 | volasertib -0.07 | [2] 0.018 | epoxomicin 0.019 | [3] 0.06 | [4] 0.009 | [5] -0.049 | rosiglitazone -0.046 | [6] 0.008 | [7] 0.081

CAPG (UniProt P40121)
inactive: [1] -0.063 | volasertib -0.046 | [2] 0.064 | epoxomicin 0.041 | [3] -0.01 | [4] -0.033 | [5] 0.014 | rosiglitazone 0.04 | [6] -0.038 | [7] 0.036

CARD6 (UniProt Q9BX69)
inactive: [1] 0.103

C12orf73 (UniProt Q69YU5)
inactive: [1] 0.047 | volasertib -0.146 | [2] -0.052 | epoxomicin -0.04 | [3] 0.023 | [4] 0.099 | [5] -0.115 | rosiglitazone -0.016 | [6] -0.179 | [7] 0.212

CAND2 (UniProt O75155)
inactive: [1] 0.001 | volasertib 0.009 | [2] -0.05 | epoxomicin 0.028 | [3] 0.047 | [4] -0.02 | [5] -0.066 | rosiglitazone -0.004 | [6] -0.001 | [7] -0.074

C2orf49 (UniProt Q9BVC5)
inactive: [1] 0.123 | volasertib 0.043 | [2] 0.002 | epoxomicin -0.189 | [3] -0.079 | [4] -0.026 | [5] -0.012 | rosiglitazone 0.016 | [6] -0.122 | [7] 0.097

CANT1 (UniProt Q8WVQ1)
inactive: [1] -0.097 | volasertib -0.061 | [2] 0.008 | epoxomicin -0.007 | [3] -0.003 | [4] -0.019 | [5] 0.014 | rosiglitazone 0.054 | [6] -0.024 | [7] -0.011

C19orf25 (UniProt Q9UFG5)
inactive: [1] 0.048 | volasertib -0.002 | [2] -0.019 | epoxomicin 0.219 | [3] 0.066 | [4] -0.015 | [5] 0.322 | rosiglitazone 0.07 | [6] -0.032 | [7] 0.105

CAPZA2 (UniProt P47755)
inactive: [1] 0.013 | volasertib -0.046 | [2] -0.006 | epoxomicin -0.002 | [3] -0.012 | [4] -0.035 | [5] 0.016 | rosiglitazone 0.003 | [6] -0.059 | [7] 0.006

BUD23 isoform 3 (UniProt O43709)
inactive: [1] 0.099 | volasertib 0.152 | [2] -0.02 | epoxomicin -0.096 | [3] 0.027 | [4] 0.074 | [5] -0.11 | rosiglitazone 0.019 | [6] 0.074 | [7] 0.006

C1orf109 (UniProt Q9NX04)
inactive: [1] 0.037 | volasertib 0.079 | [2] -0.053 | epoxomicin 0.12 | [3] -0.062 | [4] -0.012 | [5] -0.085 | rosiglitazone -0.026 | [6] 0.002 | [7] 0.121

C1GALT1C1 (UniProt Q96EU7)
inactive: [1] -0.065 | volasertib -0.183 | [2] 0.041 | epoxomicin 0.011 | [3] 0.001 | [4] -0.006 | [5] 0.024 | rosiglitazone 0.023 | [6] -0.045 | [7] 0.087

C6orf47 (UniProt O95873)
inactive: [1] 0.075 | volasertib 0.03 | [2] -0.023 | epoxomicin -0.038 | [3] -0.006 | [4] -0.009 | [5] -0.053 | rosiglitazone 0.019 | [6] -0.024 | [7] 0.081

C15orf40 (UniProt Q8WUR7)
inactive: [1] 0.019 | volasertib 0.076 | [2] 0.042 | epoxomicin -0.063 | [3] -0.063 | [4] -0.043 | [5] -0.052 | rosiglitazone 0.058 | [6] -0.079 | [7] 0.031

CAPNS2 (UniProt Q96L46)
inactive: [1] 0.225

Pulled one by one from the list above (2):
C8orf82 (UniProt Q6P1X6)
inactive: [1] -0.014 | volasertib 0.029 | [2] -0.015 | epoxomicin 0.102 | [3] -0.011 | [4] 0.006 | [5] -0.013 | rosiglitazone -0.014 | [6] -0.083 | [7] 0.018

CAPG (UniProt P40121)
inactive: [1] -0.063 | volasertib -0.046 | [2] 0.064 | epoxomicin 0.041 | [3] -0.01 | [4] -0.033 | [5] 0.014 | rosiglitazone 0.04 | [6] -0.038 | [7] 0.036

(continued)

C11orf98 (UniProt E9PRG8)
inactive: [1] 0.212 | volasertib 0.401 | [2] 0.005 | epoxomicin -0.269 | [3] -0.017 | [4] 0.238 | [5] -0.109 | rosiglitazone -0.078 | [6] 0.284 | [7] 0.302

C2CD2L (UniProt O14523)
inactive: [1] 0 | volasertib -0.039 | [2] -0.052 | epoxomicin -0.049 | [3] 0.007 | [4] 0.038 | [5] -0.041 | rosiglitazone -0.014 | [6] -0.006 | [7] -0.099

CACYBP (UniProt Q9HB71)
inactive: [1] -0.044 | volasertib 0.024 | [2] 0.013 | epoxomicin 0.008 | [3] -0.006 | [4] -0.024 | [5] 0.004 | rosiglitazone 0.032 | [6] -0.033 | [7] -0.045

C1orf131 isoform 5 (UniProt Q8NDD1)
inactive: [1] 0.124 | volasertib 0.274 | [2] -0.016 | epoxomicin -0.242 | [3] 0.027 | [4] 0.306 | [5] -0.193 | rosiglitazone -0.052 | [6] 0.269 | [7] 0.19

C2CD2 (UniProt Q9Y426)
inactive: [1] -0.128 | volasertib -0.038 | [2] 0.026 | epoxomicin 0.062 | [3] -0.112 | [4] 0 | [5] -0.007 | rosiglitazone 0.103 | [6] 0.017 | [7] -0.008

C9orf78 (UniProt Q9NZ63)
inactive: [1] -0.003 | volasertib 0.06 | [2] -0.041 | epoxomicin 0.057 | [3] 0.025 | [4] 0.024 | [5] -0.026 | rosiglitazone -0.036 | [6] -0.029 | [7] -0.013

C6orf89 isoform 2 (UniProt Q6UWU4)
inactive: [1] 0.015 | volasertib 0.009 | [2] -0.05 | epoxomicin 0.045 | [3] 0.016 | [4] -0.073 | [5] 0.028 | rosiglitazone 0.032 | [6] -0.001 | [7] 0.047

C18orf25 (UniProt Q96B23)
inactive: [1] -0.037 | volasertib -0.015 | [2] -0.021 | epoxomicin -0.032 | [3] -0.033 | [4] 0.022 | [5] 0.018 | rosiglitazone -0.045 | [6] -0.092 | [7] -0.036

C2CD5 isoform 4 (UniProt Q86YS7)
inactive: [1] -0.08 | volasertib 0.005 | [2] -0.124 | epoxomicin 0.054 | [3] -0.089 | [4] -0.086 | [5] 0.032 | rosiglitazone 0.095 | [6] 0.048 | [7] -0.061
